Results as given in US20260216144A1, “TARGETING MB2 OF THE MYC ONCOGENE AND ITS INTERACTION WITH TRRAP IN CANCER” (priority 2019, published 2026).
Entries after “also recorded” stand apart in the source; their conditions may differ.

What follows are compounds tested on MYC: TRRAP (assay: CD spectroscopy of MYC 1-190, TRRAP 2033-2088 and their mixture in the presence of additives). Conditions: CD spectra with additive; Table 3.
Design: species or system human

Structure (SMILES)	Secondary Structure
OCC(F)(F)F [2,2,2-Trifluoroethanol]	largest gain in secondary structure; also recorded: Highly α-helical
C[N+](C)(C)CC(=O)O [Betaine]	Unstructured
O=S(=O)([O-])[O-].[Cu+2] [CuSO4]	Unstructured
CCO [Ethanol]	Unstructured
OCCO [Ethylene Glycol]	α-helical
OCC(O)CO [Glycerol]	Partially α-helical
NCC(=O)O [Glycine]	Unstructured
CO [Methanol]	Unstructured
OC[C@H]1O[C@H](O[C@H]2O[C@H](CO)[C@@H](O)[C@H](O)[C@H]2O)[C@H](O)[C@@H](O)[C@@H]1O [Trehalose]	Unstructured
C[N+](C)(C)[O-] [Trimethylamine N-oxide]	Unstructured
[Cl-].[Cl-].[Zn+2] [ZiCl2]	Unstructured
